PubChem BioAssay AID1259308 | NCATS, 2017
Screen: 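Genes whose loss raises luciferase production in HEK293 cells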 (primary screen). System: human HEK293 embryonic kidney cells stably expressing firefly luciferase (HEK-CMV-Luc2-Hygro). Reagents: single siRNA against human genes, 0.8 pmol siRNA per well. Duration: 72 h. Detection: 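Reporter luminescence and viable-cell signal on separate replicate plates, given as percent of non-targeting control and median/MAD z-scores, plus per-cell luciferase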. Reading the numbers: total luciferase, z-score and total luciferase, % of control: higher = more reporter protein produced; luciferase per cell, z-score: higher = more reporter output per viable cell. Hit rule: 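Active when the median/MAD z-score for overall luciferase is greater than 3; a gene was taken forward for validation with new siRNAs if at least two of its three siRNAs passed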. Calls: active = raised luciferase; inactive = no rise.
Here is a random part of about 59,000 reagents tested. About 1,510 of all reagents (2.6%) count as active. 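Calls use total luciferase alone and ignore viability, so some active siRNAs may act by altering cell number.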 Entries without a mark were called inactive. Reagents against one gene are numbered here. Not all columns of the deposit are shown.

Target gene	reagent no.	total luciferase, z-score	total luciferase, % of control	luciferase per cell, z-score
SORT1	1	0.434	90.5	0.401
SORT1	2	-0.671	68.5	-0.658
SORT1	3	0.00487	82	-1
JRKL	1	-0.279	76.3	-0.688
JRKL	2	-0.985	62.3	-1.29
JRKL	3	-0.965	62.7	-1.2
PUDP	1	-0.545	71	-1.45
PUDP	2	-0.768	66.6	-0.162
PUDP	3	-1.05	61	-0.891
TYSND1	1	0.17	85.3	-0.0187
TYSND1	2	-0.825	65.5	-1.11
TYSND1	3	0.318	88.2	0.0732
AFDN-DT	1	-2.12	39.7	1.61
AFDN-DT	2	-0.669	68.6	0.478
AFDN-DT	3	0.79	97.6	-0.0167
RPLP1P5	1	2.52	132	2.35
RPLP1P5	2	0.548	92.8	0.726
RPLP1P5	3	-1.88	44.5	1.07
PPP1R1B	1	0.331	88.5	0.358
PPP1R1B	2	-0.519	71.6	-0.709
PPP1R1B	3	-0.993	62.1	-1.48
SOX7	1	-0.767	66.6	-0.949
SOX7	2	-1.38	54.4	-1.38
SOX7	3	1.52	112	0.453
KRABD2	1	1.83	118	1.91
KRABD2	2	0.197	85.8	1.2
KRABD2	3	0.225	86.4	-0.164
MAGEB17	1	-0.644	69.1	-0.108
MAGEB17	2	1.5	112	2.95
MAGEB17	3	-0.148	78.9	0.268
MAP3K11	1	0.85	98.8	0.376
MAP3K11	2	0.803	97.9	0.815
MAP3K11	3	-2.71	28.1	-2.86
ZNF3	1	-0.846	65.1	-0.708
ZNF3	2	2.21	126	1.68
ZNF3	3	0.622	94.3	0.653
KCNE2	1	1.59	114	1.55
KCNE2	2	-2.35	35.2	-1.33
KCNE2	3	1.96	121	1.38
